No constants are given. Whether binding was seen depends on the method and setting. Some entries that bind do so weakly or less than the wild type.
Columns and labels:
[1] = biological target: human CD3 expressed on cells (Jurkat cells; human lymphocytes/PBMCs) (human) (UniProt P07766); assay: flow cytometry on CD3 positive Jurkat cells
[2] = biological target: human CD3 expressed on cells (Jurkat cells; human lymphocytes/PBMCs) (human) (UniProt P07766); assay: flow cytometry on human PBMCs, lymphocyte gate
[3] = biological target: human CD3 expressed on cells (Jurkat cells; human lymphocytes/PBMCs) (human) (UniProt P07766); assay: flow cytometry on CD3 positive Jurkat cells, detection with anti-human F(ab')2-PE, RFU

The chains behind the UniProt entries cited, without tags or fusion partners. Where a name states a change or a piece, a line headed by the entry shows the natural chain unless it says otherwise.
UniProt P07766: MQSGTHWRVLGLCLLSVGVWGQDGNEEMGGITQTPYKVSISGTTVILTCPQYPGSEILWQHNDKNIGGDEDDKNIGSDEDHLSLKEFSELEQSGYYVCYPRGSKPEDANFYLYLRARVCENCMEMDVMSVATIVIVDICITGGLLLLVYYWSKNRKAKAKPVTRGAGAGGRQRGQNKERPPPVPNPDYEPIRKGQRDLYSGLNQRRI

Measured: binding

B1: mAb#Freiburg (antibody, human IgG1, lambda, V domains shown)
VH: EVQLVESGGGLVKPGGSLRLSCAASGFTFNTYAMNWVRQAPGKGLEWVGRIRSKYNNYATYYADSVKDRFTISRDDSKNTLYLQMNSLKTEDTAVYYCTTHGNFGNSYVSWFAYWGQGTLVTVSS
VL: QTVVTQEPSLTVSPGGTVTLTCRSSTGAVTTSNYANWVQQKPGQAPRGLIGGTNKRAPGTPARFSGSLLGGKAALTLLGAQPEDEAEYYCALWYSNLWVFGGGTKLTVLG
binds: all assays above

B2: mAb#München (antibody, human IgG1, lambda, V domains shown)
VH: EVQLVESGGGLVKPGGSLRLSCAASGFTFNTYAMNWVRQAPGKGLEWVGRIRSKYNNYATYYADSVKDRFTISRDDSKNTLYLQMNSLKTEDTAVYYCTTHGNFGNSYVSWFAYWGQGTLVTVSS
VL: QTVVTQEPSLTVSPGGTVTLTCRSSTGAVTTSNYANWVQQKPGQAPRGLIGGTKFLAPGTPARFSGSLLGGKAALTLLGAQPEDEAEYYCALWYSNLWVFGGGTKLTVLG
binds: all assays above

B3: mAb#Bremen (antibody, human IgG1, lambda, V domains shown)
VH: EVQLVESGGGLVKPGGSLRLSCAASGFTFNTYAMNWVRQAPGKGLEWVGRIRSKYNNYATYYADSVKDRFTISRDDSKNTLYLQMNSLKTEDTAVYYCTTHGNFGNSYVSWFAYWGQGTLVTVSS
VL: QTVVTQEPSLTVSPGGTVTLTCRSSTGAVTTSNYANWVQQKPGQAPRGLIGGTKFLAPGTPARFSGSLLGGKAALTLSGVQPEDEAEYYCALWYSNLWVFGGGTKLTVLG
binds: all assays above

Reference: US20200377594A1
